Reference: article PMC10492376
Results are given in words; binding and its absence hold for the method and conditions named. Binding seen in cells or lysates may run through a third protein. Some results given as binding are weak or reduced against the parent protein; the word gives no strength.

Molecular target: T1, Selenium-binding protein 1 (human (endogenous in BHT101)) (UniProt Q13228)
T1 sequence: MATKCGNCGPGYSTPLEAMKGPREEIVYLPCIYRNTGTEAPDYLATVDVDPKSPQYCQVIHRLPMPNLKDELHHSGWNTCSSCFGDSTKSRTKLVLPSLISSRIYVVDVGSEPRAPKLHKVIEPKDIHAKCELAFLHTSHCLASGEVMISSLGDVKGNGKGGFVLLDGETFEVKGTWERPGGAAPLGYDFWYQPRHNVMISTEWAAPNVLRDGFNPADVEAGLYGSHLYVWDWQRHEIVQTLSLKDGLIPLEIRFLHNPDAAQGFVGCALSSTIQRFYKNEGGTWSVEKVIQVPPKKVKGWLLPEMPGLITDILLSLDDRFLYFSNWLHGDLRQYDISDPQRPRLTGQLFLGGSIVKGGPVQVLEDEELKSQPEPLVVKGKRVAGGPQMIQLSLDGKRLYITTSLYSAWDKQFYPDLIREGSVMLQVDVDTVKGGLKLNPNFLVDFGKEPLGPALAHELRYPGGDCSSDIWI
Experiment: co-IP; BHT101 lysate (20 mM Tris-HCl pH 8.0, 150 mM NaCl, 1 mM EDTA, 0.5% Nonidet P-40); endogenous SBP1 immunoprecipitated with anti-SBP1 antibody, protein G-agarose beads, 4 °C, 8 h; normal mouse IgG as negative control; washed with 100 mM KCl, 0.05% NP40; blotted for SBP1 or TXN

- binding: binds
B1: thioredoxin (protein, UniProt P10599 1-105)
chain: MVKQIESKTAFQEALDAAGDKLVVVDFSATWCGPCKMIKPFFHSLSEKYSNVIFLEVDVDDCQDVASECEVKCMPTFQFFKKGQKVGEFSGANKEKLEATINELV
